Assay results reported in article doi:10.1101/2022.09.13.507776.
These are yes or no findings as the source states them, for the method shown. In cells and extracts the contact can be indirect. Some binding calls cover weakened binding; strength is not graded here. Sequences can lack the tags named with a protein.

Key:
[1] = molecular target: hemagglutinin (HA)-tagged SRGAP2A (human) (UniProt O75044); assay: co-IP
[2] = molecular target: hemagglutinin (HA)-tagged SRGAP2C (human) (UniProt P0DJJ0); assay: co-IP

B1: CTNND2-GFP (protein, UniProt Q9UQB3 1-1225)
chain: MFARKPPGAAPLGAMPVPDQPSSASEKTSSLSPGLNTSNGDGSETETTSAILASVKEQELQFERLTRELEAERQIVASQLERCKLGSETGSMSSMSSAEEQFQWQSQDGQKDIEDELTTGLELVDSCIRSLQESGILDPQDYSTGERPSLLSQSALQLNSKPEGSFQYPASYHSNQTLALGETTPSQLPARGTQARATGQSFSQGTTSRAGHLAGPEPAPPPPPPPREPFAPSLGSAFHLPDAPPAAAAAALYYSSSTLPAPPRGGSPLAAPQGGSPTKLQRGGSAPEGATYAAPRGSSPKQSPSRLAKSYSTSSPINIVVSSAGLSPIRVTSPPTVQSTISSSPIHQLSSTIGTYATLSPTKRLVHASEQYSKHSQELYATATLQRPGSLAAGSRASYSSQHGHLGPELRALQSPEHHIDPIYEDRVYQKPPMRSLSQSQGDPLPPAHTGTYRTSTAPSSPGVDSVPLQRTGSQHGPQNAAAATFQRASYAAGPASNYADPYRQLQYCPSVESPYSKSGPALPPEGTLARSPSIDSIQKDPREFGWRDPELPEVIQMLQHQFPSVQSNAAAYLQHLCFGDNKIKAEIRRQGGIQLLVDLLDHRMTEVHRSACGALRNLVYGKANDDNKIALKNCGGIPALVRLLRKTTDLEIRELVTGVLWNLSSCDALKMPIIQDALAVLTNAVIIPHSGWENSPLQDDRKIQLHSSQVLRNATGCLRNVSSAGEEARRRMRECDGLTDALLYVIQSALGSSEIDSKTVENCVCILRNLSYRLAAETSQGQHMGTDELDGLLCGEANGKDAESSGCWGKKKKKKKSQDQWDGVGPLPDCAEPPKGIQMLWHPSIVKPYLTLLSECSNPDTLEGAAGALQNLAAGSWKWSVYIRAAVRKEKGLPILVELLRIDNDRVVCAVATALRNMALDVRNKELIGKYAMRDLVHRLPGGNNSNNTASKAMSDDTVTAVCCTLHEVITKNMENAKALRDAGGIEKLVGISKSKGDKHSPKVVKAASQVLNSMWQYRDLRSLYKKDGWSQYHFVASSSTIERDRQRPYSSSRTPSISPVRVSPNNRSASAPASPREMISLKERKTDYECTGSNATYHGAKGEHTSRKDAMTAQNTGISTLYRNSYGAPAEDIKHNQVSAQPVPQEPSRKDYETYQPFQNSTRNYDESFFEDQVHHRPPASEYTMHLGLKSTGNYVDFYSAARPYSELNYETSHYPASPDSWV
For B1, the binding [1] was “binds” and the binding [2] was “binds”.
